Measurements published in PubChem BioAssay AID1487 (National Center for Advancing Translational Sciences (NCATS), 2009).
The list shows a part of the results. Shown are side measurements of this screen, not its main read-out; they come without a call. The list favours compounds with an active or inconclusive main result. Words in brackets tell the shape of the fitted curve; partial curves, single points and poor fits give uncertain potencies.

Experiment: qHTS Assay for Modulators of Lamin A Splicing
Details: HeLa LMNA splicing GFP/RFP minigene ratio, 48 h
In short: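 Read-out is the ratio of GFP to DsRed2 object intensity, acquired by 488 nm laser-scanning cytometry on HeLa lamin A-EGFP minigene reporter cells. Compound incubation 48 hrs at 37 °C in Opti-MEM with 2% FBS; DMSO 0.5% final.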

[1] = measured here: RFP viability control channel
[2] = measured here: GFP splicing reporter channel

| SMILES | AC50 [1] | AC50 [2] |
| --- | --- | --- |
| COc1ccc(NC(=S)NCCCc2ccccc2)cc1 | 31.6 µM [rising, single point] | – |
| Fc1ccc(C(CCCn2nnc(-c3cccnc3)n2)c2ccc(F)cc2)cc1 | 11.2 µM [rising, partial curve] | 15.8 µM [rising, partial curve] |
| COc1ccc(N2CC(O)=C(c3nc(-c4ccc(Cl)cc4)cs3)C2=N)cc1 | 0.562 µM [falling, full curve] | 0.562 µM [falling, full curve, poor fit] |
| Oc1ccc(CNc2ccccc2)c2cccnc12 | 31.6 µM [rising, single point] | – |
| CCOC(=O)N1CCN(c2nc(-c3ccc(F)cc3)cs2)CC1 | 20 µM [rising, single point] | 3.98 µM [rising, single point] |
| CC(NC(=O)Nc1ccccc1F)C(C)(C)C (stereo not drawn) | – | 0.00447 µM [rising, full curve, poor fit] |
| Cc1nnc(NC(=O)CSc2cn(CCNC(=O)c3ccccc3)c3ccccc23)s1 | 10 µM [rising, partial curve, poor fit] | 7.08 µM [rising, partial curve, poor fit] |
| C/C(Cn1nnc([N+](=O)[O-])n1)=N\NC(=O)c1ccc(Cl)c(Cl)c1 | 35.5 µM [rising, single point] | – |
| NNc1nc2ccc(Cl)cc2s1 | 12.6 µM [rising, partial curve] | – |
| CCOC(=O)Cc1csc(NC(=O)Nc2ccccc2)n1 | 31.6 µM [rising, single point] | – |
| NC(N)=[N+]1CCc2ccccc2C1 | 0.178 µM [rising, full curve, poor fit] | – |
| CN(Cc1nc(-c2cccnc2)no1)S(=O)(=O)c1ccc2ccccc2c1 | – | 35.5 µM [rising, single point] |
| CCCn1c(SCC(=O)c2ccc3c(c2)NC(=O)CO3)nc2ccccc21 | 0.126 µM [rising, full curve, poor fit] | – |
| CCCCN(CC)Cc1ccc(CNC(=O)Nc2ccc(F)cc2)o1 | 0.1 µM [rising, full curve, poor fit] | – |
| COc1cccc(C(=O)N2CCN(C(=O)c3cccs3)CC2)c1OC | 11.2 µM [rising, single point] | – |
| CC(/C=N/Nc1nc(C)cc(C)n1)=C\c1ccc(C(C)C)cc1 | 7.94 µM [rising, partial curve] | – |
| CC(=O)Nc1ccc(C(=O)Nc2ccc3c(c2)N(C2CCCC2)C(=O)c2ccccc2S3)cc1 | – | 3.98 µM [falling, full curve, poor fit] |
| Nc1nc(Nc2cccc(C(F)(F)F)c2)nc(C(F)(F)F)n1 | 8.91 µM [falling, partial curve, poor fit] | – |
| CCOc1ccc2nc(N3C(=O)/C(=C/c4ccccc4)NC3=S)sc2c1 | 10 µM [rising, partial curve] | – |

Filtered by structure: the compounds so far with a halogen.

| SMILES | AC50 [1] | AC50 [2] |
| --- | --- | --- |
| Fc1ccc(C(CCCn2nnc(-c3cccnc3)n2)c2ccc(F)cc2)cc1 | 11.2 µM [rising, partial curve] | 15.8 µM [rising, partial curve] |
| COc1ccc(N2CC(O)=C(c3nc(-c4ccc(Cl)cc4)cs3)C2=N)cc1 | 0.562 µM [falling, full curve] | 0.562 µM [falling, full curve, poor fit] |
| CCOC(=O)N1CCN(c2nc(-c3ccc(F)cc3)cs2)CC1 | 20 µM [rising, single point] | 3.98 µM [rising, single point] |
| CC(NC(=O)Nc1ccccc1F)C(C)(C)C (stereo not drawn) | – | 0.00447 µM [rising, full curve, poor fit] |
| C/C(Cn1nnc([N+](=O)[O-])n1)=N\NC(=O)c1ccc(Cl)c(Cl)c1 | 35.5 µM [rising, single point] | – |
| NNc1nc2ccc(Cl)cc2s1 | 12.6 µM [rising, partial curve] | – |
| CCCCN(CC)Cc1ccc(CNC(=O)Nc2ccc(F)cc2)o1 | 0.1 µM [rising, full curve, poor fit] | – |
| Nc1nc(Nc2cccc(C(F)(F)F)c2)nc(C(F)(F)F)n1 | 8.91 µM [falling, partial curve, poor fit] | – |

More entries follow.

| SMILES | AC50 [1] | AC50 [2] |
| --- | --- | --- |
| CC1CCc2nc(NC(=O)CN3CCN(Cc4ccc5c(c4)OCO5)CC3)sc2C1 (stereo not drawn) | 14.1 µM [rising, single point] | – |
| Cc1nnc(N2CCC(C(=O)NC(C)C)CC2)c2nn(-c3ccccc3)c(C)c12 | – | 12.6 µM [rising, single point] |
| CCOc1ccc(CN(Cc2ccco2)S(=O)(=O)c2ccc(-n3cnnn3)c(OC)c2)cc1 | 15.8 µM [rising, single point] | 12.6 µM [rising, partial curve] |
| CC(C)CC(COCc1ccc(Cl)cc1)N1CCN(C(=O)c2ccc(Cl)cc2Cl)CCC1=O (stereo not drawn) | 14.1 µM [rising, single point] | – |
| CCOc1ccc(C(=O)Nc2ccc(-n3nncc3-c3ccc(OC)cc3)cc2)cc1 | 7.08 µM [falling, partial curve] | 7.08 µM [falling, partial curve] |
| CC(=O)NC[C@H]1CN(c2ccc(N3CCOCC3)c(F)c2)C(=O)O1 | 35.5 µM [falling, single point] | – |
| Cc1ccc(C(=O)c2ccccc2C(=O)OCC(=O)NCCc2ccccc2)cc1 | 0.447 µM [rising, full curve, poor fit] | – |
| O=C(OCn1ncc(Cl)c(Cl)c1=O)c1cccc(C(F)(F)F)c1 | 5.62 µM [falling, full curve] | 3.55 µM [falling, full curve] |
| Cc1cc(C=O)c(C)n1-c1cc(C(F)(F)F)ccc1N1CCOCC1 | 20 µM [rising, single point] | 20 µM [rising, partial curve, poor fit] |
| CCOC(=O)c1c(C)[nH]c(C(=O)N/N=C\c2ccccc2O)c1C | 3.55 µM [rising, full curve] | – |
| Cc1ccsc1/C=N\Nc1cn[nH]c(=O)c1Cl | 2.82 µM [rising, partial curve] | 3.98 µM [rising, partial curve, poor fit] |
| CC1(C)C2(C#N)C(N)=NC3(OCCO3)C12C#N (stereo not drawn) | 0.0891 µM [falling, full curve, poor fit] | – |
| O=C(NCCc1ccc(F)cc1)c1cc(-c2ccncc2)nc2ccccc12 | – | 25.1 µM [falling, single point] |
| COc1ccc(C(=O)/C=C/N2CCCCC2)cc1OC | 3.16 µM [rising, partial curve] | – |
| O=c1[nH]c2ccccc2n1CCCN1CCCCC1 | 2.82 µM [falling, partial curve] | 6.31 µM [falling, single point] |
| O=c1c2ccccc2[nH]c(=S)n1CCN1CCC(=C(c2ccc(F)cc2)c2ccc(F)cc2)CC1 | – | 20 µM [rising, partial curve] |
| O=C(CSc1nc(-c2ccccc2)nc2cc(=O)[nH]n12)Nc1ccccc1 | – | 0.00316 µM [falling, full curve, poor fit] |
| Cc1cccc(C(=O)Nc2nnc(COc3ccccc3)s2)c1 | 2.82 µM [rising, partial curve, poor fit] | 1.41 µM [rising, full curve] |
